Reference: PubChem BioAssay AID2685 (National Center for Advancing Translational Sciences (NCATS), 2010)
This is one part of the list. Further columns of the screen follow, without active or inactive calls. Most of these compounds were active or inconclusive in the main read-out, so they are no random draw. The note in brackets gives the kind of curve behind each potency; many fits are weak.

Experiment: qHTS Assay for Lipid Storage Modulators in Drosophila S3 Cells;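 on cell number change: cells counted by Cell Tracker Red CMTPX staining in the red channel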
Conditions: BODIPY lipid droplet fluorescence, 18-24 h; for cell number change: measured here: cell count max response, cells fed with added oleic acid
Procedure, shortened: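 Laser-scanning cytometry quantifies lipid droplet accumulation (500–530 nm total intensity; droplet/cell object ratio) in oleic acid-fed (400 uM added) Drosophila S3 cells treated with a concentration series. 20 uM Triacsin C defined 100% inhibition.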

[1] = measured here: cell number channel AC50, cells fed with added oleic acid
[2] = measured here: lipid fluorescence (Fed channel) AC50, cells fed with added oleic acid

In the case of `COc1ccc(/C=N/NC(=O)c2ccc(CSc3nncn3C)cc2)cc1OC`, the cell number change is reported as 31%, the AC50 [1] is reported as 13 µM [rising, single point] and the AC50 [2] is reported as 0.13 µM [rising, full curve, poor fit].
In the case of `COc1ccc(S(=O)(=O)Nc2c(C)ccc3nsnc23)cc1OC`, the cell number change is reported as 15.8% and the AC50 [2] is reported as 0.731 µM [rising, full curve].
For `O=C(NCc1ccco1)C(c1ccncc1)N(C(=O)Cn1nnc2ccccc21)c1ccccc1F` (centres undefined), the cell number change was -14.1%.
With `CSc1ccc(S(=O)(=O)NCC(=O)OCCOc2ccccc2)cc1[N+](=O)[O-]` the cell number change was -4.3% and the AC50 [2] was 0.00461 µM [rising, full curve, poor fit].
In the case of `COc1ccc(/C=C/C(=O)Nc2cccnc2)cc1OC`, the cell number change is reported as -38.6%, the AC50 [1] is reported as 32.6 µM [falling, single point] and the AC50 [2] is reported as 6.51 µM [rising, single point].
With `O=C(Nc1ccc(-c2cscn2)cc1)C1CCCN(Cc2ccccc2)C1` (centres undefined) the cell number change was 37% and the AC50 [2] was 6.51 µM [rising, single point].
In the case of `OCC1(Cc2ccccc2F)CCCN(Cc2c(F)ccc(F)c2F)C1` (centres undefined), the cell number change is reported as -16.8% and the AC50 [2] is reported as 16.4 µM [falling, single point].
For `Cn1c(=O)[nH]c(=O)c2c1nc(N(CCO)Cc1ccccc1)n2CCCc1ccccc1`, the cell number change was -16.7% and the AC50 [2] was 13 µM [falling, partial curve, poor fit].
For `COc1ccc(S(=O)(=O)N2CCCCC2)cc1NC(=O)c1ccccc1`, the cell number change was 51.3% and the AC50 [1] was 8.2 µM [rising, partial curve].
For `COc1ccc(C(CNC(=O)c2ccco2)N2CCCCC2)cc1` (centres undefined), the cell number change was -88.7%, the AC50 [1] was 23.1 µM [falling, partial curve, poor fit] and the AC50 [2] was 29.1 µM [falling, partial curve, poor fit].
In the case of `CCCCn1c(SCC(=O)N(CC)C2CCS(=O)(=O)C2)nc2cc(S(N)(=O)=O)ccc21` (centres undefined), the AC50 [1] is reported as 0.116 µM [rising, single point].
`N#C/C(=C1\CCCN1)c1ccc2ccccc2n1` gave a cell number change of -14.1%.
For `CC1CCN(C(=O)C2CCCN2S(=O)(=O)c2ccc(Cl)cc2)CC1` (centres undefined), the cell number change was -7.08% and the AC50 [2] was 0.58 µM [rising, single point].
With `CCOC(=O)Cn1c(=O)c(-c2cc(Br)ccc2N)nc2ccccc21` the cell number change was 53.6% and the AC50 [1] was 2.06 µM [rising, partial curve, poor fit].
In the case of `Nc1c(-c2ccc(Cl)cc2)cnn1-c1ccccc1`, the cell number change is reported as 20.6% and the AC50 [2] is reported as 29.1 µM [rising, single point].
For `O=C(CN(Cc1ccccc1)C(=O)CNS(=O)(=O)c1ccc(F)cc1)NCC1CCCO1` (centres undefined), the cell number change was 6.41% and the AC50 [2] was 29.1 µM [falling, single point].
For `O=C(CSc1ncn(-c2ccccc2)n1)NCc1ccccc1`, the cell number change was 3.25% and the AC50 [2] was 6.51 µM [rising, single point].
For `Cc1ccc2nc3c(cc(C(=O)NC4CCCC4)c(=N)n3C3CCCCC3)c(=O)n2c1`, the cell number change was 89.7%, the AC50 [1] was 29.1 µM [rising, single point] and the AC50 [2] was 5.17 µM [falling, single point].
In the case of `c1ccc(Cn2c(-c3cccs3)nc3nc4ccccc4nc32)cc1`, the cell number change is reported as 60%, the AC50 [1] is reported as 0.58 µM [rising, full curve] and the AC50 [2] is reported as 2.91 µM [rising, single point].
For `CCN1CCN(c2ccc(Cl)cc2NC(=O)c2ccc(-n3nc(C)cc3C)cc2)CC1`, the cell number change was -11.8% and the AC50 [2] was 0.731 µM [falling, full curve].
With `Cc1nnc(SCCn2c(N3CCCCCC3)nc3c2c(=O)[nH]c(=O)n3C)s1` the cell number change was -0.958%.
For `Nc1c([N+](=O)[O-])c(=O)oc2ccccc12`, the cell number change was 4.47% and the AC50 [2] was 6.51 µM [rising, single point].
With `CSc1ncc(C(=O)Nc2ccccc2Cl)c(C)n1` the cell number change was -31.7% and the AC50 [1] was 1.64 µM [falling, full curve].
In the case of `CC(=O)c1c(C)[nH]c(C(=O)CN2C(=O)NC3(CCCCC3)C2=O)c1C`, the cell number change is reported as 69.5%, the AC50 [1] is reported as 29.1 µM [rising, single point] and the AC50 [2] is reported as 0.00517 µM [rising, full curve, poor fit].
In the case of `Cc1ccsc1/C=N/NC(=O)Cc1cccn1C`, the cell number change is reported as 21.9% and the AC50 [2] is reported as 3.26 µM [rising, partial curve].
In the case of `CC(=O)OCc1c(F)c(F)c(-n2nc(C)cc2C)c(F)c1F`, the cell number change is reported as 4.78%.
For `CCSC1=C(C#N)C(c2ccccc2Cl)C(C(=O)c2cccs2)C(O)(C(F)(F)F)N1` (centres undefined), the AC50 [2] was 0.58 µM [falling, single point].
With `CCOC(=O)c1c(-c2ccccc2)oc2ccc(O)cc12` the cell number change was -29.9% and the AC50 [2] was 29.1 µM [falling, single point].
For `COc1ccc(N2CCN(S(=O)(=O)c3ccc(Cl)s3)CC2)cc1`, the cell number change was 2.3% and the AC50 [2] was 29.1 µM [falling, single point].
For `COc1ccc(C(CCNC(C)c2ccccc2)c2ccc(F)cc2)cc1` (centres undefined), the cell number change was -59.8%, the AC50 [1] was 20.6 µM [falling, single point] and the AC50 [2] was 20.6 µM [falling, partial curve].
For `O=C(Cn1c(=O)oc2cc(S(=O)(=O)N3CCCC3)ccc21)N1CCN(C2CCCCC2)CC1`, the cell number change was 6.32% and the AC50 [2] was 1.03 µM [falling, full curve, poor fit].
In the case of `O=C(Nc1ccc(NS(=O)(=O)c2ccccc2)cc1)c1ccc(Cl)cc1`, the cell number change is reported as 118% and the AC50 [1] is reported as 23.1 µM [rising, partial curve].
Molecule `CC(=O)NC(CC(=O)N(C)C1CCCCC1)c1ccccc1` (centres undefined) has a cell number change of 15.2%.
`Cc1cccc(NS(=O)(=O)c2ccc(C(=O)NCC(C)(C)N3CCOCC3)cc2)c1C` showed a cell number change of -22.7%.
Molecule `Cc1cccc(-n2nnnc2SCC(=O)Nc2cccc(S(N)(=O)=O)c2)c1` has a cell number change of 22.1%.
For `COc1ccc(C(=O)NCCn2cc(SCC(=O)Nc3cc(C)on3)c3ccccc32)cc1OC`, the cell number change was -11.6% and the AC50 [2] was 0.82 µM [rising, single point].
Molecule `CCN1C(N(C)CCc2cccs2)=N[C@@H](c2ccccc2)C(C(=O)OC)=C1C` has a cell number change of 2.03%.
Molecule `COc1cc(OC)c(C2=NOC(C(=O)Nc3cc(C)nn3-c3ccccc3)C2)cc1Cl` (centres undefined) has a cell number change of -7.19%.
With `CCN(CC)C(=O)c1cnn(-c2ccccc2)c1NC(=O)c1cccc(F)c1` the cell number change was 24% and the AC50 [2] was 29.1 µM [falling, partial curve].
